Most values lie at the floor of the assay. Slopes are relative: functional sequences can read slightly below zero.
These substances were tested on Saccharomyces cerevisiae PS128 hsf1 delta, HSF1(1-493) fusion (assay: growth estimate (transactivation domain function in HSF1 fusion, heat-shock survival) (a.u. (slope of normalised read count over time)); higher = stronger growth at 37°C, i.e. more transactivation activity). Settings: library: random library.

Substance | growth estimate
VAFTGKKCMLCSNALFFGRS | < -0.25
FRTYRL | < -0.25
VRNKVNPVGTLLTLSEHATI | < -0.25
TRYRLVFTRSRVNHVS | < -0.25
SCNAVQSQTSRDDICTTTRC | < -0.25
PRERAFAESPLTV | < -0.25
SVGYGR | < -0.25
HPQVKRTT | < -0.25
SMMRRLYRHLVRFFLSGADG | < -0.25
RLSSEPGRALGTLTLDSVRD | < -0.25
EMCVSGNMRHQPIANIAGTV | < -0.25
PYRSVIGDAKGAYLKSVDCT | < -0.25
TGGRLLGISWGLTPSHQRGV | < -0.25
HPHQRLYAKMRGETTGEV | < -0.25
QEQGRRLGREIGLLDRADSA | < -0.25
PGHQSPSSLVCTGRSG | < -0.25
TWSQFSLQIIKL | < -0.25
ARTEVRPHA | < -0.25
GGVCCRGRVYTRLQRSLPRT | < -0.25
GGDSNFPARLTSSGAKYSDS | < -0.25
VIRWSDLSLTSAKDKGMLQM | < -0.25
IGDNWTYTSRGYTA | < -0.25
LLRS | < -0.25
RVQGPGAVSNVWHAG | < -0.25
PVPTGFLVFKSAHWAYDACR | < -0.25

Some of the entries so far, with tabs.
Substance	growth estimate
PGHQSPSSLVCTGRSG	< -0.25
PVPTGFLVFKSAHWAYDACR	< -0.25

(next part)

Substance | growth estimate
DRQRCLIESASEYERDTAHG | < -0.25
VYPSVSLVVTSRLTSERSVY | < -0.25
AHGGIGTPPEVGS | < -0.25
GRGIGLFRTLNSRVFRLSSG | < -0.25
GRSWHKRVAIRGLSA | < -0.25
TDYHT | < -0.25
HKRGRQSRNVRVRSSSSVDT | < -0.25
SPASIGTLNYPVNYMVQRGM | < -0.25
LGTSLVIHWGGLPDKVRRYA | < -0.25
PECNREVVYGVFSATGLANH | < -0.25
PSVRIE | < -0.25
PLSYFGGSAGANKGSTAPHV | < -0.25
LSQPGYKA | < -0.25
SSLLLTASTAVKLSLRVLEV | < -0.25
RPEFLPRTGAPVTSE | < -0.25
LHKISSWHGCVTGAARSLRE | < -0.25
SGPGMQE | < -0.25
VQPYSGFNVRPSG | < -0.25
CRVIGAQLHRADCYVQSVPT | < -0.25
LPRETE | < -0.25
FMSASPLQALRLGCRARLAV | < -0.25
YPLASGRAVTIIKGFGEPYR | < -0.25
DCFLRFFNSADRVELVLEVR | < -0.25
LMNTGRSRAIQSRPGLHSMT | < -0.25
VRLSVHGVCPLTAIWVDLSP | < -0.25

Substance | growth estimate
GDSPYGAGRA | < -0.25
RSLRIGCGTKRATQKARLRS | < -0.25
GSGRKRYGSSCYGKSHSHTR | < -0.25
EKGADSEFKQNNKGTGAA | < -0.25
KLVCIFVCSWYVWMGIQAVL | < -0.25
VLSCSAPISEQQHMATC | < -0.25
FNCVHNKQNHGAKEGKSAPV | < -0.25
KGNSMDSIHDLVQL | < -0.25
HRNYGEACMQKQWLTVAACR | < -0.25
LRQQPAVNPRETNLCSIYTS | < -0.25
AKPERANSHLSPAVTGSQPP | < -0.25
MDGTIRAVLRYTLRGWNSTE | < -0.25
SCHDPFAICSRSGY | < -0.25
TCGVRKALYRLKECMLRVGS | < -0.25
RVLESC | < -0.25
SVMEYSITFAPEDSSAGRSV | -0.145
TGVSREIEG | < -0.25
HITSTVSATYRSASL | < -0.25
FTGPFSISPVSAGSLGSLS | < -0.25
TGLLYCRGTMVCL | < -0.25
TREPR | < -0.25
RIESR | < -0.25
NIIKRLVLDGTFTISYGI | 0.0045
RHPERSKLNFGVNEPRGPTF | < -0.25
YFS | < -0.25

Fetched one by one from the entries so far (five):
Substance | growth estimate
EMCVSGNMRHQPIANIAGTV | < -0.25
TWSQFSLQIIKL | < -0.25
SGPGMQE | < -0.25
PLSYFGGSAGANKGSTAPHV | < -0.25
FTGPFSISPVSAGSLGSLS | < -0.25

Next part.

Substance | growth estimate
ERVGIMPRETASTRRSRIVC | < -0.25
RFLMTRCRCLGGRNLYLLMS | < -0.25
TTVLSYLKRH | < -0.25
LVPIGRIDLEVIAFTPPRSG | < -0.25
NSPTRYGVVVHLTSHGGNRG | < -0.25
QWACGNRFHLLELRTFIAHS | < -0.25
LMDH | < -0.25
ECFAK | < -0.25
LKSPFSILSVVKSAWSCVSA | < -0.25
SAMSRTELGLPGCQRV | < -0.25
QIGLVGFSTILLEEGVWWGC | < -0.25
SITDDGPFGGVMKKWHLGVT | < -0.25
PSCIYVQTPPPSRATAYLYS | < -0.25
TYGCIWPNQMFHSAQPGILR | < -0.25
TFGQVCTSSGESRDGSGRRR | < -0.25
IDLD | < -0.25
LPKGGSLRRFCATGWH | -0.0328
ISLS | < -0.25
ISGPVVSKVKHCPVAVKGPS | < -0.25
LTVEKRG | < -0.25
SKEQSARYVAMGRDVRWCGK | < -0.25
ERGRSGCTHSDRTSRCPMLS | < -0.25
ERRLVCGSC | < -0.25
CSPRVLIHSEKGWAVDISGK | -0.243
GGTTLEHACLMRVDSCRLRR | < -0.25

Substance | growth estimate
QGGPSAVQVLWLDLVILSEE | < -0.25
LREFVVPRRSRNSKVSLQKS | < -0.25
SLYQLIVGGLGSTDKLYGSY | < -0.25
LNKVKQEGVK | < -0.25
PHIG | < -0.25
NWPLTLLGHSPRQGSWITPS | < -0.25
QLLSALRH | < -0.25
LTRRPLIGTVRGTVKV | < -0.25
CSDRR | < -0.25
IKCYTPGVGCTSSRGGCNTE | < -0.25
EGCPVDRIRV | < -0.25
HCEEYKGSYRCVRCAYIQQG | < -0.25
NLHDRCQVRAGSR | < -0.25
DNQVYENEDYEHHEH | < -0.25
RVTG | < -0.25
CGHRGEKRGTPEPSSGSHRS | < -0.25
SQKRFDVRRLAGWDRRGVRM | < -0.25
YRQIGFESIAPITVR | < -0.25
WRSHWGKGTSHWGRITSIFL | < -0.25
TDRQAMELLIRAAGHNLAS | < -0.25
KCRHFAACSLSVMKFTKILG | < -0.25
VPHHPELTRI | < -0.25
AGSMGCIYRSSLSCCHAMQR | < -0.25
SDQQETIPICCSVCCAMGEI | < -0.25
ARKIFFSTWCPCVRRQCTKL | < -0.25

Substance | growth estimate
GEPNLTKCVLPGPSVRLRAP | < -0.25
RMGM | < -0.25
LEREEQSMCSDTSL | < -0.25
SKEGCNGTHRWDTDFSKSPG | < -0.25
GTYLPCGRRLCKDKGRPIMG | < -0.25
LSTMGGIACRHCA | < -0.25
LMVA | < -0.25
FKMTFVTYSACASRNFKERV | < -0.25
TIMYGYPIVLFYSLRERS | < -0.25
DERNLC | < -0.25
VSPPDKWDT | < -0.25
VIFGLPRVRLRILR | < -0.25
RSRYKRWSALIQPKVASSHI | < -0.25
VLTPIRIQFCRVH | < -0.25
SGNYANIS | < -0.25
EVCTYPKMHS | < -0.25
SERNALARGGSVSIPVLPRR | -0.245
PNMDH | < -0.25
PRGCQAHRCSGGVSVQLILA | < -0.25
VDETRYALTQRDTIGKNGHS | < -0.25
TFRIGQTTGLFARPVGLMSV | < -0.25
NPLSRHARHH | < -0.25
SSIEDDLEWSAPGVGPSLAV | < -0.25
RHSHK | < -0.25
NLMGGGNS | -0.231

Substance | growth estimate
FHGSSMATTSRPGMVSSVLP | < -0.25
MFRANRVANAQSSPYRTPP | < -0.25
SIHSAMTNPKPPGHLRLSSV | < -0.25
TETRT | < -0.25
HGFGLE | < -0.25
SFCLSGRALHLSTGLDKRGR | < -0.25
GSIVGGRLGPNV | < -0.25
VSSDL | < -0.25
NTVWSERGPRSTFYRHYRPA | < -0.25
SANGEQDKLQCHLGSVNPPD | < -0.25
GFANDVRPYRGLCVYLLLHP | < -0.25
ASRMVHNTCLSQILLDHVGP | < -0.25
LWTVGKNWYGQLVRGGSRGA | < -0.25
WREVYEVSQVLDLWSSGLTP | -0.173
LGKDLPRVTAHGTAAPDT | < -0.25
SMVRQFSSVLSLYSSANRL | < -0.25
LRSLFETRDSVNEWILPYTT | < -0.25
GQRVNASMNVCRTASRHLLS | < -0.25
VYPSHTDQ | < -0.25
PQRSMDVRNMISI | < -0.25
VRFESRDPPGRDTVRYSSWA | < -0.25
EEPGLSTLTQNTRGKLDLKQ | < -0.25
QMDSLKKGGR | < -0.25
RSCLG | < -0.25
SFTLCWRELMGIHAG | < -0.25

Substance | growth estimate
PTLSSQ | < -0.25
RLNINHHGVHFAL | < -0.25
RGRLGLSDGQ | < -0.25
NVHRASCS | < -0.25
RCYVSTSRSTTYSFCDAGFR | < -0.25
QDVRMIKLAILRFFLSLRKS | < -0.25
CMRCLRLWPSGPKSHAVPAE | < -0.25
GCVRAHKEVVHFGTSCLGAI | < -0.25
SYRP | < -0.25
VSSEAAFPSGP | < -0.25
LRVVVIGSSKCASCNLIVIA | -0.25
ELTWMVWPTTLYVGVWSPAH | < -0.25
VRSRAQVTETRIGM | < -0.25
VDLLLLCDSNLALSTNRFKC | < -0.25
TERQVYCG | < -0.25
RNIYWN | < -0.25
GHRQEFRG | < -0.25
GSCVGLYGTPVTSG | < -0.25
SKPQ | < -0.25
TRVVRDWDVQCTVIPRTELL | < -0.25
